These are yes or no findings as the source states them, for the method shown. Some results given as binding are weak or reduced against the parent protein; the word gives no strength.
Experiments:
[1] = molecular target: T1, human CLPTM1 on human CD14+ cells and CD14+-derived macrophages (human) (UniProt O96005); assay: flow cytometry on M2 macrophages derived from a human donor, against isotype control staining
T1 sequence: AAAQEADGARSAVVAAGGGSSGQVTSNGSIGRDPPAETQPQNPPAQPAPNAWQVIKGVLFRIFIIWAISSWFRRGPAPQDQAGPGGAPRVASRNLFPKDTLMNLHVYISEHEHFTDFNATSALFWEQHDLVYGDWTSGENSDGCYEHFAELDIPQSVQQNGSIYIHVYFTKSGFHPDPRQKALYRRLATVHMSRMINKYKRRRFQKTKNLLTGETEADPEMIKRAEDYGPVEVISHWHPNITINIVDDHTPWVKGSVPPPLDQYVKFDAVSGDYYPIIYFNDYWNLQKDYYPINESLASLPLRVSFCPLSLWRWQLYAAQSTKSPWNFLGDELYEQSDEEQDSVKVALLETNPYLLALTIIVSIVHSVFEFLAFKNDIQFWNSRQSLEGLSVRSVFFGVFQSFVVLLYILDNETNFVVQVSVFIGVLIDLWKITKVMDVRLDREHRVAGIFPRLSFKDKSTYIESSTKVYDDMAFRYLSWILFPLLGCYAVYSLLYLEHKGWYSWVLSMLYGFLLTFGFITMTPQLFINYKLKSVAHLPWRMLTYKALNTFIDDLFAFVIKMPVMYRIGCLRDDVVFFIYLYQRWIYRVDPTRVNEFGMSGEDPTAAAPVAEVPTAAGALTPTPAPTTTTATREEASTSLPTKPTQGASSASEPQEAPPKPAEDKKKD

[2] = molecular target: T1, human CLPTM1 on human CD14+ cells and CD14+-derived macrophages (human); assay: flow cytometry, surface staining of human M2 macrophages derived in vitro from CD14+ monocytes
[3] = molecular target: T2, native CLPTM1 in membrane-permeabilised O-876 cells (Homo sapiens (Human)) (UniProt O96005); assay: flow cytometry on permeabilised O-876 cells (described in Example 13)
T2 sequence: T1 sequence

[4] = molecular target: T2, native CLPTM1 in membrane-permeabilised O-876 cells (Homo sapiens (Human)); assay: flow cytometry on membrane-permeabilised O-876 cells, a-mouse IgG-PE secondary, intensity normalised to the signal at 10 ug/ml
[5] = molecular target: T2, native CLPTM1 in membrane-permeabilised O-876 cells (Homo sapiens (Human)); assay: flow cytometry on permeabilised O-876 cells

Measured: binding

B1: anti-CLPTM1 antibody 59D04 (format in the assay not stated) (antibody, V domains shown)
VH: EVQLVESGGGVVQPGRSLRLSCAASGFTFSTYAMHWVRQAPGKGLEWVAVISYDGTNKYYADSVKGRFTIFRDNSKNTLYLQMNSLRAEDTAVYYCGSGSYWGQGTLVTVSS
VL: QPVLTQPASVSGSPGQSITISCTGTSSDVGGYNYVSWYQQHPGKAPKLMIYEVTNRPSGVSDRFSGSKSGNTASLTISGLQAEDEADYYCSSYKSSNTVVFGGGTKVTVL
notes: Fully human antibody derived by phage display
not listed: [5]
binds: all other assays above

B2: anti-CLPTM1 mouse monoclonal antibody 7G12 (antibody, IgG1, V domains shown)
VH: QVQLQQSGTELVRPGTSVKVSCKASGYAFTNYLIEWVKQRPGQGLEWIGVINPGSGGTRYNEKFKGKATLTADKSSTTAHMQLSSLTSDDSAVYCARWGGNYSGYAMDYWGQGTSVTVSS
VL: QIVLTQSPVIMSASPGEKVTITCSASSSVSYMHWFQQKPGTSPKLWIYSTSNLASGVPARFSGSGSGTSYSLTISRMEAEDAATYYCQQRSSYPPTFGAGTKL
notes: Mouse monoclonal, IgG1 heavy chain, kappa light chain; The printed VL ends in 'TKL.' and may be incomplete; also called CLPTM1 clone 7G12 (IgG1)
binds: [5] | [4]

Source: US20190343962A1 (GENAGON THERAPEUTICS, published 2019)
